# Measurements taken from publication PMC10570040.
# How the values were obtained:
# Assay in all cases: EMSA
# [1] = target: EnfR wild-type (TON_1525) (Thermococcus onnurineus NA1) (UniProt B6YTS4); conditions: EMSA: 10 mM Tris pH 7.4, 200 mM KCl, 2 mM DTT, 0.2 mM EDTA, 37 C 20 min, recombinant protein, residues 1-146, protein details: C-terminal His6, non-cleavable
# [2] = target: EnfR R35A (Thermococcus onnurineus NA1) (UniProt B6YTS4); conditions: drastically decreased; EMSA: 10 mM Tris pH 7.4, 200 mM KCl, 2 mM DTT, 0.2 mM EDTA, 37 C 20 min; recombinant protein; residues 1-146; protein details: C-terminal His6, non-cleavable; label: 5'-Cy5
# [3] = target: EnfR R43A (Thermococcus onnurineus NA1) (UniProt B6YTS4); conditions: drastically decreased; EMSA: 10 mM Tris pH 7.4, 200 mM KCl, 2 mM DTT, 0.2 mM EDTA, 37 C 20 min; recombinant protein; residues 1-146; protein details: C-terminal His6, non-cleavable; label: 5'-Cy5
# [4] = target: EnfR T55I (Thermococcus onnurineus NA1) (UniProt B6YTS4); conditions: 0-250 nM protein, 5 nM DNA; EMSA: 10 mM Tris pH 7.4, 200 mM KCl, 2 mM DTT, 0.2 mM EDTA, 37 C 20 min; recombinant protein; residues 1-146; protein details: C-terminal His6, non-cleavable; label: 5'-Cy5
# [5] = target: EnfR ΔN1-6 del1-6 (Thermococcus onnurineus NA1) (UniProt B6YTS4); conditions: defect in DNA binding; EMSA: 10 mM Tris pH 7.4, 200 mM KCl, 2 mM DTT, 0.2 mM EDTA, 37 C 20 min; recombinant protein; residues 7-146; protein details: C-terminal His6, non-cleavable; label: 5'-Cy5
# [6] = 10 nM protein, band lost with cold 36-bp, label: 5'-Cy5 on forward primer, probe letters rebuilt from the primers and the genome
sequence,measurement,setting,value
CCATCTTAAAATCGTTTTGTTTCCATTATACGAGGT (double strand) [T14G-A23C],binding result,"[1]; 0-200 nM protein, 5 nM DNA, remarkable reduction, label: Cy5",binds more weakly
AGACTTATTCCTATTTTGTCCTAACTTCCCTCGCCCTAAGGGACAATACCTGATGAACGGCCAAACATGTCTATTAAGGGCATTCTTAATTCAATGTTCTACGTTCATAAATGACCTTAAGTGATTTTGTTTACCCCAGTATTTGGCAGTATACAAACAGACTTAAAAAAAGCCTTCTGAGGGCTTTATTTCGCTGTTTCTCAATGGACATAACCTTTTGTTAAAAACCAAGCTATTTAAAAAGTGTTTTAAGCCAAATAGAGAACTATTATTGAAAATCAAATAGCGTACAGTACACCATATAGAGTACATTGGCGACCAAAAATGTCCCCCAATGTGGAGGTGTGGAGAATGAGTGAA (double strand) [P1563],binding result,[1]; [6],binds
ACGTATCTCATATTACCACCCCCCCAATGGACATAAACTTACGCGTGCTCATGTTTGTTCCCTCAGTCTCGGCTTGGTAGATAGATAAAAAAGCGTTTTTAAACCCGGAAATTGTAAACCAAAGGTTAAAACTCTTTTGTTTAGTTAGAATTTTAGAGATAACAAAAATGTTAGACGTAATGATGTCCCTTTTAGCGGTTCCGAGAACAATATAAACCATTATAACCCATTCCAAGCCACTATAGTCGTATAAAGTTCCTAATCAACTAATGAAGCAGTGTTGAACCTTTAGTTTGGAAAAGGCCGTTAAAAAAACGTTTTTAAGCAAATTCATTTAACACCTGAATGAACATCTTGGGACATTTAATGTAGGGTGGTGGGTATGGCACAGAA (double strand) [P0537],binding result,[1]; [6],binds
"CCATCTTAAAATCTTTTTGTTTACATTATACGAGGT (double strand) [36-bp target, Cy5]",binding result,[2],binds more weakly
same,binding result,[3],binds more weakly
same,binding result,[4],binds more weakly
same,binding result,[5],binds more weakly

# Weaker means in comparison with the reference protein, sequence or condition of that experiment.
